Reference: patent US20210071139A1
No constants are given. Whether binding was seen depends on the method and setting. In cells and extracts the contact can be indirect. Some results given as binding are weak or reduced against the parent protein; the word gives no strength.

Amino acid sequences for entries named in this document (tags omitted).
UniProt Q66JW3: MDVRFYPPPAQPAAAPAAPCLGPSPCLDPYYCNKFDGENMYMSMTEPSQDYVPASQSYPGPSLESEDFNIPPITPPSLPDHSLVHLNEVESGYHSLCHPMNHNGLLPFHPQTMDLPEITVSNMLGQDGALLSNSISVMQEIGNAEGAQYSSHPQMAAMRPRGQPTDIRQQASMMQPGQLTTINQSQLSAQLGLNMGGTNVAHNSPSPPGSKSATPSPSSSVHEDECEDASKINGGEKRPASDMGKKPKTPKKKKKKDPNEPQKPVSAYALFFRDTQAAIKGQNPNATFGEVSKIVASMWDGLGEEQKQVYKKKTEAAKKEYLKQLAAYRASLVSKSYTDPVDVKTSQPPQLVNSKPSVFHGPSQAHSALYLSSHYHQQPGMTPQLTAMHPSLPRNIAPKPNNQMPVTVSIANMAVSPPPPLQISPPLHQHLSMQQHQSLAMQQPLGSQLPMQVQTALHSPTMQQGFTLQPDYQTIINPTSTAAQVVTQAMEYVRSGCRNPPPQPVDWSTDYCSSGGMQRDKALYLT

Legend:
[1] = target: Ing4 (UniProt Q8C0D7); assay: IP of TOX from EL4 nuclear lysate, LC-MS/MS, MiST scoring
[2] = target: Jade2 (UniProt Q6ZQF7); assay: as above

TOX (from UniProt Q66JW3 1-526) was tested, and the binding [1] was “binds” and the binding [2] was “binds”.
